Laboratory results: paper PMC4673834
Like-named read-outs stand apart in the source and are kept apart here. These are yes or no findings as the source states them, for the method shown. In cells and extracts the contact can be indirect. These calls come from enrichment with a bait or labelling near it, and not all partners need be listed. For some assays here: No binding means not detected with the bait. For some assays here: Where a sequence is shown, tags or fusion partners need not be part of it.

The chains behind the UniProt entries cited, without tags or fusion partners.
UniProt E9Q1P8: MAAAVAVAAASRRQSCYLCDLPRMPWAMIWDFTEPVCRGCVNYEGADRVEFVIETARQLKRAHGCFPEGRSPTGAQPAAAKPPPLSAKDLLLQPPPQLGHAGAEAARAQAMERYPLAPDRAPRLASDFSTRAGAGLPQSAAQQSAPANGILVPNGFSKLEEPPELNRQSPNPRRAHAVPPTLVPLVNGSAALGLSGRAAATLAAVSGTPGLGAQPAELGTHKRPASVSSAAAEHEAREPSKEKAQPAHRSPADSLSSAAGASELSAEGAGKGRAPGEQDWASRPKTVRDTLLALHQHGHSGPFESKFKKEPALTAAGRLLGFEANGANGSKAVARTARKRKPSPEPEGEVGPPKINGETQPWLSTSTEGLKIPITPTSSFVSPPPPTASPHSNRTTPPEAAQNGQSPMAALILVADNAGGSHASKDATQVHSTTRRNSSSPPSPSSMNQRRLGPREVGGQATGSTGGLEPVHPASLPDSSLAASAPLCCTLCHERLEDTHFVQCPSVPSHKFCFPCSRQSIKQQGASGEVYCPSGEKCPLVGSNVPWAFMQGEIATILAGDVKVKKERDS
UniProt Q8R3Y8: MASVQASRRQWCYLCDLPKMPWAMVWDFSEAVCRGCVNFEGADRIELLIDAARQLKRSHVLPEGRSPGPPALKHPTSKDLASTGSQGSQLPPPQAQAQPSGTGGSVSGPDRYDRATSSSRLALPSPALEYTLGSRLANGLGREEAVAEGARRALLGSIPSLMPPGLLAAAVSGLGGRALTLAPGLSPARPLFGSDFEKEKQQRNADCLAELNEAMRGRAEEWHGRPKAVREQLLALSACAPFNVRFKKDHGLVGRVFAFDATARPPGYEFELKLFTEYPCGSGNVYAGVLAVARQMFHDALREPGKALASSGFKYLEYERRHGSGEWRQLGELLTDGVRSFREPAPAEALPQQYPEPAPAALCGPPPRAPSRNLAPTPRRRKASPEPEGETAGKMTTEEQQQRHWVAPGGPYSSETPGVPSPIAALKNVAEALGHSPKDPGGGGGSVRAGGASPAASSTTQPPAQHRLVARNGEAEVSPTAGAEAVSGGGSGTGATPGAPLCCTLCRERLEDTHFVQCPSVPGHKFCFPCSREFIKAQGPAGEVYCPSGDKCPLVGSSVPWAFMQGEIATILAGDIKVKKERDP
UniProt Q8K3X4: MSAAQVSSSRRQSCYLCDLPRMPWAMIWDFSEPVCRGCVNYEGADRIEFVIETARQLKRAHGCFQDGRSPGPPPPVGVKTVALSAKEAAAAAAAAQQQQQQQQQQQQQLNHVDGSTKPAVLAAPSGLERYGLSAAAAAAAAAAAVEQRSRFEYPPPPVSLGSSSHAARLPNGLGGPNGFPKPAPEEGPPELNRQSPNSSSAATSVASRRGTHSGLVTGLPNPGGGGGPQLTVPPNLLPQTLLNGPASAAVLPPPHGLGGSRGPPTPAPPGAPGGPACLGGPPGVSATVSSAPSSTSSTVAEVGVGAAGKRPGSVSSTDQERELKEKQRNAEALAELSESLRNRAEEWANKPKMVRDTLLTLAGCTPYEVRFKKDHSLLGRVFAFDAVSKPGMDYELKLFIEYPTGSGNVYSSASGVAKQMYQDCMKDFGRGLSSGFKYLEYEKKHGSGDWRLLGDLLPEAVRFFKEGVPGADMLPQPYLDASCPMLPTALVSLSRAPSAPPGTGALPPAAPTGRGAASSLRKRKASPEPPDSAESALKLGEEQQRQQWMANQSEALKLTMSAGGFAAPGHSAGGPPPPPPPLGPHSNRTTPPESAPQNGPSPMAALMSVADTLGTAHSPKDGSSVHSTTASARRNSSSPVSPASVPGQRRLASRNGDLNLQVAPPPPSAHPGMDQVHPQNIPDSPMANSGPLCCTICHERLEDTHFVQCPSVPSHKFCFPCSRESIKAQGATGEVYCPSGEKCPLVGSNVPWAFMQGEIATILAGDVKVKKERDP
UniProt Q60974: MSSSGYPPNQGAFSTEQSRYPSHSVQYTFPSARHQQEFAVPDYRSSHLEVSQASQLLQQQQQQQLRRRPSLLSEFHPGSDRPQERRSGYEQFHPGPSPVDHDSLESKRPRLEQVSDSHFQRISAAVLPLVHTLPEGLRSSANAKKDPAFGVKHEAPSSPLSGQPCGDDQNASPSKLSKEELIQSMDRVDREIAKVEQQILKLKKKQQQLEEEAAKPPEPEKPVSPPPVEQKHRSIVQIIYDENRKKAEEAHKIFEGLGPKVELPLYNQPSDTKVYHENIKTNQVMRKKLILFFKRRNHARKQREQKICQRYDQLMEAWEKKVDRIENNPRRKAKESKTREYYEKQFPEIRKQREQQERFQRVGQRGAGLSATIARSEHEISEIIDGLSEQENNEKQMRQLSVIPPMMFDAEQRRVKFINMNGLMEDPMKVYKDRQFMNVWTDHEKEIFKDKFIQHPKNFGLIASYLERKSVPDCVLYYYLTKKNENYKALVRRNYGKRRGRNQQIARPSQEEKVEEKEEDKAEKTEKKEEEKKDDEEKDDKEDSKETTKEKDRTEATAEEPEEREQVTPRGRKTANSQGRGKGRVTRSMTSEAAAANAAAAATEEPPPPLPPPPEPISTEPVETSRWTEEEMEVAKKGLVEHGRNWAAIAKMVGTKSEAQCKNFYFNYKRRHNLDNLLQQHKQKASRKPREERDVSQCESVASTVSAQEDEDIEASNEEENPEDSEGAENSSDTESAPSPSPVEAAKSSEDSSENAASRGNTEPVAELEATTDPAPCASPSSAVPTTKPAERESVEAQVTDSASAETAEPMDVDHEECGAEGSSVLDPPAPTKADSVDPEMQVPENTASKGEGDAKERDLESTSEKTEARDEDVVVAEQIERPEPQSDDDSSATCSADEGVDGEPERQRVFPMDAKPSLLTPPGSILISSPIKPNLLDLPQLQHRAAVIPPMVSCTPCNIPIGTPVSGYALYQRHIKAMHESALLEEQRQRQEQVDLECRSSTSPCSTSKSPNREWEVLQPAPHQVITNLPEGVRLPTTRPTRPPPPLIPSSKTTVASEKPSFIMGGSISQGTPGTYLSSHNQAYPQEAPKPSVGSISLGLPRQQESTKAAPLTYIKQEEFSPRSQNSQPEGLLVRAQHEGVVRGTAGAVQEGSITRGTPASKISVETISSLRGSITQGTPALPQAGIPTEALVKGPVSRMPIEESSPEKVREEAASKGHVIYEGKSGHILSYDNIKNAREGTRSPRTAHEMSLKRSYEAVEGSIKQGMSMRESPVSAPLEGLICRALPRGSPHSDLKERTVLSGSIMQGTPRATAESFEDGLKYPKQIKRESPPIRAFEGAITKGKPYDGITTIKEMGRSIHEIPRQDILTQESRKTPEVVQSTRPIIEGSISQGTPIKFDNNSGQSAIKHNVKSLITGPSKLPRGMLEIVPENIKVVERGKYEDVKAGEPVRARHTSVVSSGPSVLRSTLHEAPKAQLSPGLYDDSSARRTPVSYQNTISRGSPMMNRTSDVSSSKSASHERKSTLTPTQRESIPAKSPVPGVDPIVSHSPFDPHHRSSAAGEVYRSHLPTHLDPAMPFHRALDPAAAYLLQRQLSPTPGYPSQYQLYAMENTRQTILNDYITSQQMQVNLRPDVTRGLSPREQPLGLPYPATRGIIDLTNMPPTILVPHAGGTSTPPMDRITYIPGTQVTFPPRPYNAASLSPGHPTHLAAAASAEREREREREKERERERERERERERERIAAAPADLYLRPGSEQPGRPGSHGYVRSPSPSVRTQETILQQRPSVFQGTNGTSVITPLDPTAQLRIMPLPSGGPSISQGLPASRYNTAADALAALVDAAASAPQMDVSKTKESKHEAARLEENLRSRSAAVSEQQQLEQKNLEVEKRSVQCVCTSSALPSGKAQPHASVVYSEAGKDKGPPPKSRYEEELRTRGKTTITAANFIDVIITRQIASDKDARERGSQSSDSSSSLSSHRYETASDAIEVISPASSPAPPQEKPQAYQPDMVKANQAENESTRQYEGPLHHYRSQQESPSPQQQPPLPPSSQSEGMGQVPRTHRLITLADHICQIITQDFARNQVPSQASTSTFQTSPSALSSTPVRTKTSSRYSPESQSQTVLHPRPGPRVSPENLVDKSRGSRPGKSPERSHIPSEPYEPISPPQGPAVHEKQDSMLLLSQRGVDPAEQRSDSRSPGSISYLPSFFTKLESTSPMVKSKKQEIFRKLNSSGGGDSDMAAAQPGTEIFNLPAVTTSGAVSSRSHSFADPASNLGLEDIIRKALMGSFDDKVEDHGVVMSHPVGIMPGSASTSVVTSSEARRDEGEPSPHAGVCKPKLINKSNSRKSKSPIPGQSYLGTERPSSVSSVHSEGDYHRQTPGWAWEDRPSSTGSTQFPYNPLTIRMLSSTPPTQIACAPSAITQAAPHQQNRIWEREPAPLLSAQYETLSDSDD
UniProt P22091: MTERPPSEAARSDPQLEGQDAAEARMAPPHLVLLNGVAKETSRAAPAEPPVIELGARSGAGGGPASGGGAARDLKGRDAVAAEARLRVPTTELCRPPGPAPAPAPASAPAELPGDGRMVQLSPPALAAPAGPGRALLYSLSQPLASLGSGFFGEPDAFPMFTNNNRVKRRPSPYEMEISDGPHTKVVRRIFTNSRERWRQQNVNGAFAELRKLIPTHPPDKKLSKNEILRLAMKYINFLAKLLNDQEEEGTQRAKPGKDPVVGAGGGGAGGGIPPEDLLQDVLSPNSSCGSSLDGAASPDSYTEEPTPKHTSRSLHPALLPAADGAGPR
UniProt O70237: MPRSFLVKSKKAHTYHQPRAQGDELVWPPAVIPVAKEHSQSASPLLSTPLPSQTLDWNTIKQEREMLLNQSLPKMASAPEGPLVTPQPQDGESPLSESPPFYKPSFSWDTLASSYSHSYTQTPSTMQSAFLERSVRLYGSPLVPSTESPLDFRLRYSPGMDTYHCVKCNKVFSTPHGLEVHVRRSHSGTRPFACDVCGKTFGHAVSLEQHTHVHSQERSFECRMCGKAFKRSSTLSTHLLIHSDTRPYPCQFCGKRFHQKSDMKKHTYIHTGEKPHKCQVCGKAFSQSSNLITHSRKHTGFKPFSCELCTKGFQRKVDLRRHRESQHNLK

T1: ETO2-V5-Bio (UniProt O54972)
T1 sequence (chain, Bio peptide of the tag biotinylated by the bacterial BirA enzyme): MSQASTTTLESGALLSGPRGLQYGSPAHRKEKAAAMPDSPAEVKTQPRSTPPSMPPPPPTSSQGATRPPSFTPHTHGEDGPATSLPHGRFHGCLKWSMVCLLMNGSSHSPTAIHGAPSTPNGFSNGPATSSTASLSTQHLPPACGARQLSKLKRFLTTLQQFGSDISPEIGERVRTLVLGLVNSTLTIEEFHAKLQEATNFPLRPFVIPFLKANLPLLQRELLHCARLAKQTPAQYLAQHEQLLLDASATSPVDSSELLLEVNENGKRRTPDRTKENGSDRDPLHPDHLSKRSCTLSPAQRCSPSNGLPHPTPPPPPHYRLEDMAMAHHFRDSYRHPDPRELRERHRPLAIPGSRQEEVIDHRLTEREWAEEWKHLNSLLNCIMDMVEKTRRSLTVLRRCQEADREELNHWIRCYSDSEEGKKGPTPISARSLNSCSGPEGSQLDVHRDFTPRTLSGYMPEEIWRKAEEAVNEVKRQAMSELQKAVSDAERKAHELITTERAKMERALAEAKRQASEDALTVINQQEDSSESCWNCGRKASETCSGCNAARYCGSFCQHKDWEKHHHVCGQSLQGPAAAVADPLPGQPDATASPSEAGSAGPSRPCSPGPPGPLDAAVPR

T2: ETO2 (endogenous) (mouse (endogenous in MEL)) (UniProt O54972)
T2 sequence: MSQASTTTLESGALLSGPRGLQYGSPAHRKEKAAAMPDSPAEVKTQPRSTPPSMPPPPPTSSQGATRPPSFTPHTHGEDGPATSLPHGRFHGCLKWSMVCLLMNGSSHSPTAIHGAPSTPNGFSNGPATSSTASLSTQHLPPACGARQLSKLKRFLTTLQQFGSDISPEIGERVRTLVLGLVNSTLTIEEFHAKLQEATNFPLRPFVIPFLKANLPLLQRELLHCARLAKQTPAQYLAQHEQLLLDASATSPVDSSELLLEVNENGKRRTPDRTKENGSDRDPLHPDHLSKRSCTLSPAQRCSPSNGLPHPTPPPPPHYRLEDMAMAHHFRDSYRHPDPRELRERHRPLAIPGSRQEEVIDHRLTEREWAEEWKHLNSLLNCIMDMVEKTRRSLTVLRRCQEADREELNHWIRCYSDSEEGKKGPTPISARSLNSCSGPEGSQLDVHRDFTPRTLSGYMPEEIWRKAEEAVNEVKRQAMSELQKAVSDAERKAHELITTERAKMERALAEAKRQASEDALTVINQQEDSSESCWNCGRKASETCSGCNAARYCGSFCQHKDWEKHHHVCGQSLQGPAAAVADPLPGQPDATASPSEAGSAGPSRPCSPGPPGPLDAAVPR


Columns and labels:
[1] = target: interferon regulatory factor 2-binding protein 2 (IRF2BP2), endogenous (mouse (endogenous in MEL)) (UniProt E9Q1P8); assay: affinity purification with mass spectrometry; endogenous IRF2BP2 antibody cross-linked to protein G Sepharose, MEL nuclear extracts with benzonase, 3 h at 4 °C, washes in C-100 buffer (100 mM KCl), LC-MS/MS; control IgG
ETO2-V5-Bio = target: T1, ETO2-V5-Bio; assay: affinity purification with mass spectrometry; single-step streptavidin capture of ETO2-V5-Bio from MEL nuclear extracts, on-bead trypsin digestion, LC-MS/MS; filtered against BirA-only MEL cells; two independent experiments
[2] = target: T2, ETO2 (endogenous) (mouse (endogenous in MEL)); assay: affinity purification with mass spectrometry; endogenous ETO2 antibody cross-linked to protein G Sepharose, MEL nuclear extracts with benzonase, 3 h at 4 °C, washes in C-100 buffer (100 mM KCl), LC-MS/MS; control immunoglobulin
[3] = target: interferon regulatory factor 2-binding protein 2 (IRF2BP2), endogenous (mouse (endogenous in MEL)) (UniProt E9Q1P8); assay: affinity purification with mass spectrometry; endogenous IRF2BP2 antibody cross-linked to protein G Sepharose, MEL nuclear extracts with benzonase, 3 h at 4 °C, washes in C-100 buffer (100 mM KCl), LC-MS/MS; control IgG; remark: listed apart in the source
[4] = target: T2, ETO2 (endogenous) (mouse (endogenous in MEL)); assay: affinity purification with mass spectrometry; endogenous ETO2 antibody cross-linked to protein G Sepharose, MEL nuclear extracts with benzonase, 3 h at 4 °C, washes in C-100 buffer (100 mM KCl), LC-MS/MS; control immunoglobulin; remark: listed apart in the source

Row | Molecule | binding [1] | binding (ETO2-V5-Bio) | other results
1 | IRF2BP1 (from UniProt Q8R3Y8 1-584) | binds | – | –
2 | IRF2BPL (from UniProt Q8K3X4 1-775) | binds | – | –
3 | NCOR1 (from UniProt Q60974 1-2453) | binds | – | –
4 | T-cell acute lymphocytic leukaemia protein 1 (TAL1) (from UniProt P22091 1-329) | – | binds | –
5 | single-stranded DNA-binding protein 4 (SSBP4) (mouse (endogenous in MEL)) | – | binds | –
6 | single-stranded DNA-binding protein 3 (SSBP3) (protein, UniProt Q9D032 1-388) MFAKGKGSAVPSDGQAREKLALYVYEYLLHVGAQKSAQTFLSEIRWEKNITLGEPPGFLHSWWCVFWDLYCAAPERRDTCEHSSEAKAFHDYSAAAAPSPVLGNIPPNDGMPGGPIPPGFFQGPPGSQPSPHAQPPPHNPSSMMGPHSQPFMSPRYAGGPRPPIRMGNQPPGGVPGTQPLLPNSMDPTRQQGHPNMGGSMQRMNPPRGMGPMGPGPQNYGSGMRPPPNSLGPAMPGINMGPGAGRPWPNPNSANSIPYSSSSPGTYVGPPGGGGPPGTPIMPSPADSTNSSDNIYTMINPVPPGGSRSNFPMGPGSDGPMGGMGGMEPHHMNGSLGSGDIDGLPKNSPNNISGISNPPGTPRDDGELGGNFLHSFQNDNYSPSMTMSV | – | binds | –
7 | cyclin-dependent kinase 11B (protein, UniProt P24788 1-784) MGDEKDSWKVKTLDEILQEKKRRKEQEEKAEIKRLKNSDDRDSKRDSLEEGELRDHRMEITIRNSPYRREDSMEDRGEEDDSLAIKPPQQMSRKEKAHHRKDEKRKEKRRHRSHSAEGGKHARVKEKEREHERRKRHREEQDKARREWERQKRREMAREHSRRERDRLEQLERKRERERKLREQQKEQREQKERERRAEERRKEREARREVSAHHRTMREEYSDKGKVGHWSRSPLRPPRERFEMGDNRKPVKEEKVEERDLLSDLQDISDSERKTSSAESSSAESGSGSEEEEEEEEEEEEEEGSTSEESEEEEEEEEEEEEEETGSNSEEASEQSAEEVSDEEMSEDEDRENENHILVVPESRFDRDSGDSEEGEEEVGEGTPQSSAPTEGDYVPDSPALSPIELKQELPKYLPALQGCRSVEEFQCLNRIEEGTYGVVYRAKDKKTDEIVALKRLKMEKEKEGFPITSLREINTILKAQHPNIVTVREIVVGSNMDKIYIVMNYVEHDLKSLMETMKQPFLPGEVKTLMIQLLSGVKHLHDNWILHRDLKTSNLLLSHAGILKVGDFGLAREYGSPLKAYTPVVVTLWYRAPELLLGAKEYSTAVDMWSVGCIFGELLTQKPLFPGKSDIDQINKIFKDLGTPSEKIWPGYNDLPAVKKMTFSEYPYNNLRKRFGALLSDQGFDLMNKFLTYYPGRRINAEDGLKHEYFRETPLPIDPSMFPTWPAKSEQQRVKRGTSPRPPEGGLGYSQLGDDDLKETGFHLTTTNQGASAAGPGFSLKF | – | – | binding [3]: binds
8 | SIN3 transcription regulator family member A (Sin3A) (protein, UniProt Q60520 1-1274) MKRRLDDQESPVYAAQQRRIPGSTEAFSHQHRVLAPAPPVYEAVSETMQSATGIQYSVAPNYQVSAVPQSSGSHGPAIAAVHSSHHHPTAVQPHGGQVVQSHAHPAPPVAPVQGQQQFQRLKVEDALSYLDQVKLQFGSQPQVYNDFLDIMKEFKSQSIDTPGVISRVSQLFKGHPDLIMGFNTFLPPGYKIEVQTNDMVNVTTPGQVHQIPTHGIQPQPQPPPQHPSQPSSQSAPTPAQPAPQPTAAKVSKPSQLQAHTPASQQTPPLPPYASPRSPPVQPHTPVTISLGTAPSLQNNQPVEFNHAINYVNKIKNRFQGQPDIYKAFLEILHTYQKEQRNAKEAGGNYTPALTEQEVYAQVARLFKNQEDLLSEFGQFLPDANSSVLLSKTTAEKVDSVRNDHGGTVKKPQLNNKPQRPSQNGCQIRRHSGTGATPPVKKKPKLMSLKESSMADASKHGVGTESLFFDKVRKALRSAEAYENFLRCLVIFNQEVISRAELVQLVSPFLGKFPELFNWFKNFLGYKESVHLESFPKERATEGIAMEIDYASCKRLGSSYRALPKSYQQPKCTGRTPLCKEVLNDTWVSFPSWSEDSTFVSSKKTQYEEHIYRCEDERFELDVVLETNLATIRVLEAIQKKLSRLSAEEQAKFRLDNTLGGTSEVIHRKALQRIYADKAADIIDGLRKNPSIAVPIVLKRLKMKEEEWREAQRGFNKVWREQNEKYYLKSLDHQGINFKQNDTKVLRSKSLLNEIESIYDERQEQATEENAGVPVGPHLSLAYEDKQILEDAAALIIHHVKRQTGIQKEDKYKIKQIMHHFIPDLLFAQRGDLSDVEEEEEEEMDVDEATGAPKKHNGVGGSPPKSKLLFSNTAAQKLRGMDEVYNLFYVNNNWYIFMRLHQILCLRLLRICSQAERQIEEENREREWEREVLGIKRDKSDSPAIQLRLKEPMDVDVEDYYPAFLDMVRSLLDGNIDSSQYEDSLREMFTIHAYIAFTMDKLIQSIVRQLQHIVSDEVCVQVTDLYLAENNNGATGGQLNSQTSRSLLESAYQRKAEQLMSDENCFKLMFIQSQGQVQLTVELLDTEEENSDDPVEAERWSDYVERYMSSDTTSPELREHLAQKPVFLPRNLRRIRKCQRGREQQEKEGKEGNSKKTMENVESLDKLECRFKLNSYKMVYVIKSEDYMYRRTALLRAHQSHERVSKRLHQRFQAWVDKWTKEHVPREMAAETSKWLMGEGLEGLVPCTTTCDTETLHFVSINKYRVKYGTVFKAP | – | – | binding [4]: no binding

Further lines, with some results ahead:

Row | binding [1] | binding (ETO2-V5-Bio) | Molecule | other results
9 | – | binds | growth factor-independent 1B (GFI1B) (from UniProt O70237 1-330) | binding [2]: binds
10 | – | binds | single-stranded DNA-binding protein 2 (SSBP2) (protein, UniProt Q9CYZ8 1-361) MYGKGKSNSSAVPSDSQAREKLALYVYEYLLHVGAQKSAQTFLSEIRWEKNITLGEPPGFLHSWWCVFWDLYCAAPERRETCEHSSEAKAFHDYSAAAAPSPVLGNMPPGDGMPVGPVPPGFFQPFMSPRYPGGPRPPLRIPNQALGGVPGSQPLLPSGMDPTRQQGHPNMGGPMQRMTPPRGMVPLGPQNYGGAMRPPLNALGGPGMPGMNMGPGGGRPWPNPTNANSIPYSSASPGNYVGPPGGGGPPGTPIMPSPADSTNSGDNMYTLMNAVPPGPNRPNFPMGPGSDGPMGGLGGMESHHMNGSLGSGDMDSISKNSPNNMSLSNQPGTPRDDGEMGGNFLNPFQSESYSPSMTMSV | –
